The values that follow are results of earlier work, collected in article PMC4713029 (Nuclear medicine and biology, 2011).

For the series the following is noted: in circulation/plasma; cited from earlier work.

Turning to `N[C@@H](Cc1ccc(O)c(O)c1)C(=O)O` [L-DOPA], the half-life (usually how long it takes for the measured level to halve) is 40 to 60 min.
